Assay results taken from article PMC7980224.
These are yes or no findings as the source states them, for the method shown. In cells and extracts the contact can be indirect. Some entries that bind do so weakly or less than the wild type.

By UniProt entry, the sequences of proteins in these tests, tags left out. Where a name states a change or a piece, a line headed by the entry shows the natural chain unless it says otherwise.
UniProt Q9NV88, whole entry: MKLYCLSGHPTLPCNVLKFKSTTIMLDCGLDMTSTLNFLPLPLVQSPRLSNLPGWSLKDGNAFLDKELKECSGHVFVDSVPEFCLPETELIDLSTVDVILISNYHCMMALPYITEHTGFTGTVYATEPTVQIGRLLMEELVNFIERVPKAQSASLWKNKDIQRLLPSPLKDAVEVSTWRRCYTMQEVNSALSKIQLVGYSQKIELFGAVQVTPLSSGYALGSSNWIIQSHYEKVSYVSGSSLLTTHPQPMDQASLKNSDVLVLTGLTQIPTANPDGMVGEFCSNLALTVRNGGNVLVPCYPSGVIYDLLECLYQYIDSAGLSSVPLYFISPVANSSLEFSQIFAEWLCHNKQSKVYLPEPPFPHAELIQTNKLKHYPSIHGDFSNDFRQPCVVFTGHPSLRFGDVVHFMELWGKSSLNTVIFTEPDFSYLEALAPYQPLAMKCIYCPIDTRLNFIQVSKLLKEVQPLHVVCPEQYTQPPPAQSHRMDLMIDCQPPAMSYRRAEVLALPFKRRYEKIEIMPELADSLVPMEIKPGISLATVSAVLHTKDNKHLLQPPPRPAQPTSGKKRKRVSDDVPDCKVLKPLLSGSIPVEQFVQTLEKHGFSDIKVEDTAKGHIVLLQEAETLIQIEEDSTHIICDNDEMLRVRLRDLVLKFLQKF
UniProt Q96HW7, whole entry: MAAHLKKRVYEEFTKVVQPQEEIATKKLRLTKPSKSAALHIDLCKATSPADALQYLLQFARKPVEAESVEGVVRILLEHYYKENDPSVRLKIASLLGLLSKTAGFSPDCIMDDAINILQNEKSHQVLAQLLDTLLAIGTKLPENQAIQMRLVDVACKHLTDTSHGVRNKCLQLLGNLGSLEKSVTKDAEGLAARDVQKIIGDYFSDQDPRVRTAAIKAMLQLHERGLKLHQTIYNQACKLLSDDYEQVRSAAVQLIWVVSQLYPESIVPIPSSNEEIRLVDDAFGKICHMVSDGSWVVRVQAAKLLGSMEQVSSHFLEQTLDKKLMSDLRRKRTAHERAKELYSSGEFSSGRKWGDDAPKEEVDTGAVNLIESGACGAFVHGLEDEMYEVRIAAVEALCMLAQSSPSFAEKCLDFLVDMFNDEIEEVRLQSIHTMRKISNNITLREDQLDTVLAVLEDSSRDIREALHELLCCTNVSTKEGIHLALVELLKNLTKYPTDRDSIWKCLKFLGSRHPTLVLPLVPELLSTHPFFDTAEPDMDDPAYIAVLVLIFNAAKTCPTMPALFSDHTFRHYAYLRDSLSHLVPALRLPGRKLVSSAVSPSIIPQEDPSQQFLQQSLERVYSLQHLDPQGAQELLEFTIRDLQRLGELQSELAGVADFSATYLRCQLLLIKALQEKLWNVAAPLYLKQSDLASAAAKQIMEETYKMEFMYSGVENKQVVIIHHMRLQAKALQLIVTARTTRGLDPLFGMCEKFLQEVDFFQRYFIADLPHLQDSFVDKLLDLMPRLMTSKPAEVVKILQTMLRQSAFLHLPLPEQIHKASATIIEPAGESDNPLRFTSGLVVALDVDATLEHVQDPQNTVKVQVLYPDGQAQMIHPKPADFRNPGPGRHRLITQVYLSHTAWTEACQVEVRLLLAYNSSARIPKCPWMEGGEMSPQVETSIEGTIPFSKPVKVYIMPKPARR

Molecular target: 3xHA-INTS9 (UniProt Q9NV88)
Assay: co-IP; SBP-INTS4, 3xHA-INTS9 and 3xFLAG-INTS11 variants co-expressed in HEK293T; HA-agarose (bait 3xHA-INTS9), 150 mM KCl, 20 mM HEPES-KOH pH 7.8, 0.1% Triton X-100 in lysis; western blot

## SBP-INTS4 (from UniProt Q96HW7 1-963)
  binding: binds
